# Results reported in patent US20240368668A1, “SUBSTRATES AND BIOMARKERS OF ADAMTS7” (The Broad Institute, Inc., priority 2021, published 2024).
# Experiments:
# mouse ADAMTS7 [1] = assay: TMT10 TAILS N-terminomics, SMC2 experiment (process replicates, trypsin/AspN digest); type: cell-based; settings: for SMC2 TAILS.total Intensity: SMC2 experiment, total intensity of the N-terminal (TAILS) peptide
# Outline: (§1)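 Full-length mouse ADAMTS7 (WT or E373Q mutant, C-terminal 3xFLAG) or luciferase was transduced via adenovirus, 50 MOI, into HCA-SMC (SMC1, SMC2) or HUVEC. SMC1: pooled media, technical triplicates 400 ug; SMC2: process triplicates 300 ug; HUVEC: process triplicates 200 ug, bFGF2 10 ng/ml.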
# mouse ADAMTS7 [2] = assay: TMT10 TAILS N-terminomics, HUVEC experiment (process replicates, trypsin/AspN digest); type: cell-based, human; settings: for ATS7_HUVEC_TAILS_frxns_mATS7inDB_AspGluN.total Intensity: HUVEC TAILS experiment, total MS intensity of the N-terminal (neo-N-terminal) peptide identified by TAILS_id; for HUVEC TAILS.total Intensity: HUVEC experiment, total intensity of the N-terminal (TAILS) peptide
# Excerpt: ADAMTS7 Expression, Cell Culture and Preparation of the Secreted Proteins—Full-length mouse Adamts7 1-1857 (Uniprot Q68SA9, WT or E373Q catalytic mutant) with a carboxyl terminal 3xFLAG tag was used to generate custom adenoviruses as previously described. Adeno-CMV-Luciferase (Ad-Luc) from Vector Biolabs was used as a negative control. Human Coronary Artery Smooth Muscle Cells (HCA-SMC) were obtained from Lonza and expanded in Lonza SmGM-2 media in 15 cm tissue culture plates. Twenty-four hours before media collection, near confluent plates were transduced with 50 MOI adenovirus and switched to Lonza Basal SM media with volumes of 20 ml per 15 cm plate. Expression of the Flag tagged ADAMTS7 was confirmed from the media using western blot and detected using the anti-Flag M2-HRP antibody (Sigma, A8592). Collected media was processed by adding protease inhibitors (1 mM EDTA and 1 mM PMSF) and clarified by 500 g×5 min spin at 4 C to pellet cell debris. Cell media supernatants were then passed through a 0.22 um filter and kept chilled. Processed media was then concentrated 50-100× using 3 kDa Centricon Plus-70 filter unit, spun at 3,500 g×60 min at 4 C. Approximately 10% of the processed, concentrated media was set aside for total secretome proteolytic analysis. The remaining 90% of the processed, concentrated media was buffer exchanged into 50 mM HEPES pH 8.0, 150 mM NaCl (2×50 ml) using the 3 kDa Centricon Plus-70 filter unit and concentrated to >2 mg/ml to serve as input for the TAILS experiment. Secretome and TAILS input samples were stored at −80° C.
# For the first experiment, referred to as SMC1, 120 ml of media from 6×15 cm dishes was pooled from each condition (Luc, WT, EQ) and processed to produce three separate inputs for the TAILS experiment. Luc, WT and EQ inputs from the SMC1 experiment were each divided into triplicate 400 ug samples to generate technical replicate TAILS data. For the second experiment, referred to as SMC2, media was processed separately in triplicate for each condition (Luc1, Luc2, Luc3, WT1, WT2, WT3, EQ1, EQ2, EQ3) using 60 ml of media from 3×15 cm dishes for each process replicate. Inputs from the SMC2 experiment used process replicates of 300 ug each to generate TAILS data. The third experiment used input from cultured Human umbilical vein endothelial cells (HUVEC) from Lifeline Cell Technology grown in VascuLife Media and transduced in Lifeline Basal EC (+bFGF2 10 ng/ml). The HUVEC experiment used the same strategy as the SMC2 experiment, with 40 ml of media from 2×15 cm dishes for each process replicate and used 200 ug each to generate TAILS data. Inputs for process replicate experiments were restricted to the lowest concentration from the 9 parallel samples for SMC2 or HUVEC.
# TMT10 isotopic labeling and negative selection of non-labeled peptides-Sample preparation was performed based on the TAILS protocol from the Overall lab with some modifications. From a single experiment, nine parallel protein samples in 50 mM HEPES pH 8.0, 150 mM NaCl were separately denatured with guanidinium chloride (Sigma, G4505) to reach a final concentration of 2.5M guanidinium chloride and 250 mM HEPES and incubated at 65° C. for 15 min. Reduction was achieved through addition of tris(2-carboxylethyl) phosphine (TCEP) at a final concentration of […] and incubated at 65° C. for 45 min. Alkylation reaction was performed with addition of iodoacetamide (IAA, Sigma, A3221) to a final concentration of 10 mM IAA for 15 min at room temperature in the dark. Following denaturation, reduction and alkylation steps, ten percent of each of the nine parallel protein samples was removed and combined to serve as a pooled reference. Isobaric tags were added to free amine groups using the TMT10plex Isobaric Mass Tagging Kit (ThermoFisher, 90113) with TMT channels randomly assigned to the nine samples and TMT 131 assigned to the pooled reference. […]
# mouse ADAMTS7 [3] = assay: TMT10 TAILS N-terminomics, SMC1 experiment (Ad-mADAMTS7 WT vs EQ vs Luc, technical replicates, trypsin digest); type: cell-based; settings: for SMC1 TAILS.total Intensity: TAILS HC Overlap, total intensity of the peptide; for TAILS_SMC_Scaleup_fxns_mATS7i: mouse ADAMTS7
# Outline: as §1
# [4] = total intensity of the N-terminal peptide spectra, SMC rd2 TAILS fractions, AspN/GluC search
# [5] = TAILS N-terminal peptide signal, SMC scale-up fractions, label = TAILS_id (gene symbol_StartAA)
# [6] = SMC rd2 TAILS, AspGluN search, total spectral intensity of the N-terminal peptide (TAILS_id = gene_StartAA cleavage site)
# [7] = TAILS N-terminal peptide identified in SMC conditioned media (scale-up, fractions), value listed per TAILS_id (protein_StartAA)
Substance,SMC2 TAILS.total Intensity (mouse ADAMTS7 [1]),ATS7_SMC_rd2_TAILS_frxns_matS7inDB_AspGluN_retry.totalIntensity (mouse ADAMTS7 [1]; [4]),ATS7_HUVEC_TAILS_frxns_mATS7inDB_AspGluN.total Intensity (mouse ADAMTS7 [2]),HUVEC TAILS.total Intensity (mouse ADAMTS7 [2]),SMC1 TAILS.total Intensity (mouse ADAMTS7 [3]),TAILS_SMC_Scaleup_fxns_mATS7i (mouse ADAMTS7 [3]; [5]),ATS7_SMC_rd2_TAILS_frxns_matS7inDB_AspGluN_retry.totalIntensity (mouse ADAMTS7 [1]; [6]),TAILS_SMC_Scaleup_fxns_mATS7i (mouse ADAMTS7 [3]; [7])
AEBP1_37 (FLEGFLSELEPEPR; listed as Homo sapiens),8.64E+07,8.64E+07,5.26E+06,5.26E+06,4.54E+07,4.54E+07,,
COL18A1_1505 (LQPPVVQLHDSNPYPR; listed as Homo sapiens),1.11E+10,1.11E+10,1.34E+11,1.34E+11,1.68E+09,1.68E+09,,
EFEMP1_124 (AVAGPEMQTGR; listed as Homo sapiens),2.58E+10,2.58E+10,2.92E+11,2.92E+11,3.19E+09,3.19E+09,,
EFEMP1_125 (VAGPEMQTGR; listed as Homo sapiens),7.46E+09,7.46E+09,9.33E+10,9.33E+10,2.03E+09,2.03E+09,,
FBN1_29 (LEAGNVKETR; listed as Homo sapiens),2.40E+10,2.40E+10,1.85E+09,1.85E+09,1.26E+10,1.26E+10,,
FLNA_1285 (LTQTGGPHVKAR; listed as Homo sapiens),1.38E+09,1.38E+09,2.92E+09,2.92E+09,5.65E+08,5.65E+08,,
FN1_36 (MVQPQSPVAVSQSKPGCYDNGKHYQINQQWER; listed as Homo sapiens),1.54E+11,1.54E+11,1.76E+11,1.76E+11,4.40E+10,4.40E+10,,
FN1_40 (QSPVAVSQSKPGCYDNGKHYQINQQWER; listed as Homo sapiens),3.29E+09,3.29E+09,1.37E+10,1.37E+10,3.67E+09,3.67E+09,,
FN1_886 (NQESTPVVIQQETTGTPR; listed as Homo sapiens),9.55E+08,,8.05E+09,4.67E+09,1.42E+09,1.42E+09,,
FN1_1143 (LTPGVEYVYTIQVLR; listed as Homo sapiens),,9.55E+08,4.67E+09,,1.36E+08,1.36E+08,,
FN1_1656 (SSSPVTGYR; listed as Homo sapiens),2.00E+10,2.00E+10,2.23E+10,2.23E+10,4.82E+09,4.82E+09,,
HSPG2_275 (LLPGSVR; listed as Homo sapiens),1.16E+08,,,2.67E+07,2.35E+07,2.35E+07,1.16E+08,
HSPG2_2331 (ANLAYPAGSTQPIR; listed as Homo sapiens),2.66E+08,,2.45E+09,2.45E+09,7.64E+07,7.64E+07,2.66E+08,
IGFBP7_101 (AAGGPGVSGVCVCKSR; listed as Homo sapiens),4.97E+08,,1.12E+08,1.12E+08,5.68E+07,,4.97E+08,5.68E+07
LOXL2_37 (FQQPAPEYHQPQAPANVAKIQLR; listed as Homo sapiens),9.09E+09,,1.61E+09,1.61E+09,5.20E+09,,9.09E+09,5.20E+09
LOX_124 (WFQAGYSTSR; listed as Homo sapiens),1.64E+09,,8.74E+07,8.74E+07,1.65E+08,,1.64E+09,1.65E+08
LTBP1_393 (LTATNFR; listed as Homo sapiens),6.93E+09,,9.19E+08,9.19E+08,9.30E+08,,6.93E+09,9.30E+08
MAP4_815 (AVASTGPSSR; listed as Homo sapiens),5.60E+08,,6.08E+08,6.08E+08,5.58E+08,,5.60E+08,5.58E+08
MAP4_816 (VASTGPSSR; listed as Homo sapiens),8.83E+08,,2.73E+08,2.73E+08,1.57E+08,,8.83E+08,1.57E+08
